Source: patent US20190062425A1 (BETH ISRAEL DEACONESS MEDICAL CENTER, published 2019)
No constants are given. Whether binding was seen depends on the method and setting. Some binding calls cover weakened binding; strength is not graded here.

How the values were obtained:
[1] = molecular target: T1, human transmembrane-4 L six family member-1 (TM4SF1), full-length (human) (UniProt P30408); experiment: immunocytochemistry
T1 sequence (N-glycosylated at N129 and N159 (ECL2), looked up): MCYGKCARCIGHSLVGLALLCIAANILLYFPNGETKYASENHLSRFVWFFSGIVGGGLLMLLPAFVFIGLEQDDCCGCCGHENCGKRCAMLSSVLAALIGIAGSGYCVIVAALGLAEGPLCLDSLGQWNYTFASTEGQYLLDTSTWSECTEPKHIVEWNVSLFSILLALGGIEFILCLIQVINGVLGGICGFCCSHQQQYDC

[2] = molecular target: T1, human transmembrane-4 L six family member-1 (TM4SF1), full-length (human); experiment: immunostaining of HUVEC
[3] = molecular target: T1, human transmembrane-4 L six family member-1 (TM4SF1), full-length (human); experiment: immunoblot of HUVEC extracts
[4] = molecular target: T1, human transmembrane-4 L six family member-1 (TM4SF1), full-length (human); experiment: epitope mapping by immunocytochemistry
[5] = molecular target: T1, human transmembrane-4 L six family member-1 (TM4SF1), full-length (human); experiment: immunofluorescence of human tissue sections
[6] = molecular target: T1, human transmembrane-4 L six family member-1 (TM4SF1), full-length (human); experiment: immunocytochemistry on HEMn cells transduced with FL-TM4SF1

binding [1]: binds | binding [2]: binds | binding [3]: binds | binding [4]: binds | binding [5]: binds | binding [6]: binds
B1: 8G4 antibody (anti-TM4SF1 mouse monoclonal antibody produced by hybridoma mouse cell line 8G4-5-13-13F, PTA-120523) (antibody, V domains shown)
VH: EVILVESGGGLVKPGGSLKLSCAASGFTFSSFAMSWVRQTPEKRLEWVATISSGSIYIYYTDGVKGRFTISRDNAKNTVHLQMSSLRSEDTAMYYCARRGIYYGYDGYAMDYWGQGTSVTVSS
VL: AVVMTQTPLSLPVSLGDQASISCRSSQSLVHSNGNTYLHWYMQKPGQSPKVLIYKVSNRFSGVPDRFSGSGSGTDFTLKISRVEADDLGIYFCSQSTHIPLAFGAGTKLELK
notes: Mouse monoclonal antibody from a hybridoma; both have the length of variable domains; also called anti-TM4SF1 antibody 8G4
